# Source: PubChem BioAssay AID493014 (National Center for Advancing Translational Sciences (NCATS), 2011)
# This is one part of the list. Further columns of the screen follow, without active or inactive calls. The list favours compounds with an active or inconclusive main result. The note in brackets gives the kind of curve behind each potency; many fits are weak.
# Assay: qHTS Assay to Find Inhibitors of Chronic Active B-Cell Receptor Signaling
# Conditions: ABC-DLBCL IkBa-CBG/CBR reporter, luminescence ratio (green luciferase fused to IkBa over red control in TMD8 lymphoma cells), 4 h
# How it was run: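 TMD8 human ABC-DLBCL cells with doxycycline-inducible IκBα–green luciferase fusion and unfused red luciferase, in 0.5% FBS medium; compounds up to 46 uM, 4 h at 37C. Green/red luminescence ratio, filter-overlap corrected, fitted to concentration-response curves.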
# [1] = measured here: CBR red luminescence, cell number
# [2] = measured here: IkBa-CBG green luminescence
Structure (SMILES),AC50 [1],AC50 [2]
c1ccc(Cc2nnc(N3CCOCC3)c3ccccc23)cc1,"5.17 µM [rising, single point]",
Cc1ccnc(N2CCC(C(=O)NNC(=O)c3ccccc3C)CC2)n1,"1.78 µM [falling, full curve]",
Cc1cc(-c2ccccc2)n2ncc(C#N)c2n1,"6.51 µM [falling, single point]",
CCc1ccc(CNC(=O)CN2C(=O)COc3ccccc32)cc1,"0.0731 µM [rising, full curve, poor fit]",
COc1ccc(C(=O)NC(=O)N2CCCCC2)cc1,"0.103 µM [rising, full curve, poor fit]",
COc1cccc(-c2nc(NC(C)C)c3ccccc3n2)c1O,"0.316 µM [falling, full curve, poor fit]",
Cc1cc(C)nc(NC(=O)/C=C/c2cccs2)c1,"3.98 µM [falling, partial curve]",
CCCCCCCC1CC(CSC(=N)N)OC1=O (centres undefined),"1.3 µM [falling, full curve, poor fit]",
Clc1cccc(Cl)c1-c1noc(CN2CCOCC2)n1,"0.794 µM [rising, full curve, poor fit]",
O=C(NCCOC(=O)c1ccccc1C(=O)OCCNC(=O)c1cccnc1)c1cccnc1,"0.00411 µM [rising, full curve, poor fit]",
CCc1nc2oc3ccccc3c(=O)c2c(=O)n1-c1ccccc1,"1.03 µM [falling, full curve]",
O=C(NCCOc1ccccc1F)Nc1ccc(Br)cc1,"0.316 µM [rising, full curve, poor fit]",
COc1cc(C2C=C(c3cccs3)Nc3ncnn32)cc(OC)c1OC (centres undefined),"5.62 µM [rising, single point]","5.62 µM [falling, single point]"
Cc1nc2ccccn2c1/C(O)=C1\C(=O)C(=O)N(CCN2CCOCC2)C1c1cccs1 (centres undefined),"13 µM [rising, single point]",
Cc1csc(NC(=O)CSc2ncnc3ccccc23)n1,"6.31 µM [falling, single point]",
O=C(/C=C/c1cccc(Br)c1)N1CCN(c2cccc(C(F)(F)F)c2)CC1,"3.26 µM [rising, partial curve, poor fit]",
FC(F)(F)c1cccc(Cc2noc(CN3CCCC(OCc4ccccn4)C3)n2)c1 (centres undefined),"0.316 µM [rising, full curve]",
CC[C@@H](C)[C@H](NC(=O)OC(C)(C)C)c1nnc(S(=O)(=O)Cc2cc(C)ccc2C)o1,"6.31 µM [falling, partial curve]",
COc1ccc(C(C(=O)NCCC(C)C)N(CCO)C(=O)c2snc(C(N)=O)c2N)cc1 (centres undefined),"35.5 µM [rising, partial curve, poor fit]",
Nc1c(-c2cccc(Cl)c2)cnn1-c1ccccc1,"10 µM [falling, single point]",
O=C(OCCOc1cccc(Cl)c1)c1cc(S(=O)(=O)N2CCCCC2)ccc1N1CCOCC1,"0.92 µM [rising, full curve]",

Structure (SMILES),AC50 [1],AC50 [2]
COc1ccc(/C(N)=N/OC(=O)CCc2ccccc2)cc1,"11.2 µM [rising, single point]",
C/C(=C\C(=O)C(F)(F)F)Nc1ccc(C)cc1,"2.31 µM [rising, full curve, poor fit]",
CCOc1ccc(/C=N/NC(=O)c2nnn(-c3nonc3N)c2CN(C)C2CCCCC2)cc1,"1.78 µM [rising, partial curve, poor fit]",
CCOc1ccccc1N1CCN(C(=O)c2cccc(-c3ccc(O)cc3)c2)CC1,"25.1 µM [falling, single point]",
CC1CC(C)CN(CCC(=O)Nc2cccc(Cl)c2)C1 (centres undefined),"3.66 µM [rising, single point]",
Cc1ccc(N(CC(=O)NC2CCCCC2)C(=O)CCCC(=O)Nc2ccccn2)cc1,"7.08 µM [falling, partial curve]",
Cc1nc(C)c(C(=O)OCC(=O)N2CCN(c3ccccc3)CC2)s1,"32.6 µM [falling, single point]",
COc1ccc2nc(NCCO)[nH]c2c1,"0.0891 µM [rising, full curve, poor fit]",
CCN(CC)CCN(Cc1cc2cc(C)ccc2[nH]c1=O)C(=S)NCc1ccco1,"29.1 µM [falling, single point]",
O=C(Nc1ccccc1C(=O)Nc1ccccn1)c1ccccc1F,,"0.708 µM [rising, full curve, poor fit]"
C=C1C2(C(=O)NCc3ccco3)CCC(C2)C1(C)C (centres undefined),"23.1 µM [falling, single point]",
C=CCN1c2ccccc2[C@]23C[C@@H](C(=O)OC)N(C(=O)c4cc(C)oc4C)C2=NC(C(=O)OC)=C(C(=O)OC)[C@H]13,"0.562 µM [rising, full curve]",
COc1ccccc1N1CCN(C(=O)c2ccc3[nH]c(C)c(C)c3c2)CC1,"8.91 µM [falling, partial curve, poor fit]","15.8 µM [falling, single point]"
O=C(NC1CCCCC1)N(CCO)Cc1cc2cc3c(cc2[nH]c1=O)OCCO3,"29.1 µM [falling, single point]",
O=C(CSc1n[nH]c(-c2ccccc2O)n1)N1CCOCC1,"14.1 µM [falling, single point]",
CCN(CC(=O)Nc1ccccc1Br)C1CCCCC1,"20 µM [falling, partial curve, poor fit]",
Cc1ccc(Oc2ccccc2/C=N/O)cc1,"16.4 µM [rising, partial curve]",
Cc1nc(NC(=O)c2ccc([N+](=O)[O-])cc2Cl)sc1C(=O)N(C)C,"16.4 µM [falling, partial curve, poor fit]",
CCOC(=O)C(=CNc1ccccc1Cl)C(=O)OCC,"10 µM [falling, partial curve, poor fit]",
Cc1ccc(CN2CCN(Cc3cc(=O)c4ccccc4[nH]3)CC2CCO)o1 (centres undefined),"35.5 µM [rising, single point]",
CC(=O)c1cccc(NC(=O)C2COc3ccccc3O2)c1 (centres undefined),"0.447 µM [rising, full curve, poor fit]",

# Two entries from above, with bars between the fields:
Structure (SMILES) | AC50 [1] | AC50 [2]
O=C(CSc1n[nH]c(-c2ccccc2O)n1)N1CCOCC1 | 14.1 µM [falling, single point] | 
CCN(CC(=O)Nc1ccccc1Br)C1CCCCC1 | 20 µM [falling, partial curve, poor fit] | 
